pIC50: −log10 of the molar value.
Test system: MCF7
Assay: Antiproliferative activity against human MCF7 cells assessed as reduction in cell growth incubated for 24 hrs by MTT assay
Type: functional, cell-based
Settings: MCF7, 24 h
In short: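 MTT assay. Cells seeded at 4 × 10^4 per well and incubated overnight. Treated 24 h; DMSO served as negative control and doxorubicin as positive control. MTT dye 0.5 mg/mL added for 2 h at 37 °C, formazan dissolved in DMSO, absorbance read at 570 nm. Single-concentration screen at 10; dose-dependent dilutions gave IC50. WI-38 fibroblasts grown in DMEM with 10% FBS and 1% penicillin/streptomycin. Triplicate means ± S.E.M.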

COc1cccc2c1C(=O)c1c(O)c3c(c(O)c1C2=O)C[C@@](O)(C(=O)CO)C[C@@H]3O[C@H]1C[C@H](N)[C@H](O)[C@H](C)O1 [DOXORUBICIN]
pIC50: 6.04

From ChEMBL document CHEMBL4814002, “Synthesis, biological evaluation, and docking studies of novel pyrrolo[2,3-b]pyridine derivatives as both ectonucleotide pyrophosphatase/phosphodiesterase inhibitors and antiproliferative agents” (Eur J Med Chem, 2021)
